Reference: the supplement of paper PMC10849652
The list shows a part of the results.

Protein sequences, listed by entry. Tags and fused reporters are not part of them. Lines headed by an entry give the natural chain unless they say otherwise; changes in a name come on top.
MCTS2P, A0A3B3IRV3, UniProt A0A3B3IRV3, whole entry, looked up: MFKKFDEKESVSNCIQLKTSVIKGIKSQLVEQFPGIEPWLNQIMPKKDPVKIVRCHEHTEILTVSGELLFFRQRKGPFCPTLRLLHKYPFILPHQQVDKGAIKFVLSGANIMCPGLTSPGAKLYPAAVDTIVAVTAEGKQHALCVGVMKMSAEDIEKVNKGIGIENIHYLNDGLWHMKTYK
UniProt Q9H204: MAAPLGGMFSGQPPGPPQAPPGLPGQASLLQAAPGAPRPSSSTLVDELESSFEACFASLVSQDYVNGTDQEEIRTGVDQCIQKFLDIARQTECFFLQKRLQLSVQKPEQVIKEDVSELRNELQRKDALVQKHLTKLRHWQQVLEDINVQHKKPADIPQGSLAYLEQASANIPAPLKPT
UniProt A0JLT2: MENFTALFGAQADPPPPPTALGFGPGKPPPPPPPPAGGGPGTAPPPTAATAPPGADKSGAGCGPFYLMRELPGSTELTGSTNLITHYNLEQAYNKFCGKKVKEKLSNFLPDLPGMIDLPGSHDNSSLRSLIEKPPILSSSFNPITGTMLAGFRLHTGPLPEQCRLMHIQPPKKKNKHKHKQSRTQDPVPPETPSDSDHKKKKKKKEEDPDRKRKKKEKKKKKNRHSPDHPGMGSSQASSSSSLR
UniProt O75586: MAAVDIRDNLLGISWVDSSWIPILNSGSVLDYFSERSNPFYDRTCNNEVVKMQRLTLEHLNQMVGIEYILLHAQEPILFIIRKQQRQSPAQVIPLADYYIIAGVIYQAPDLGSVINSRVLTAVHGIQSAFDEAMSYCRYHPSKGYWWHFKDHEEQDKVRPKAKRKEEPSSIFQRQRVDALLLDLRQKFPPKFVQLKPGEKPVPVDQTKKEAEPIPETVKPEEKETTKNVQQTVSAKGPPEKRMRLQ
UniProt Q86XA0: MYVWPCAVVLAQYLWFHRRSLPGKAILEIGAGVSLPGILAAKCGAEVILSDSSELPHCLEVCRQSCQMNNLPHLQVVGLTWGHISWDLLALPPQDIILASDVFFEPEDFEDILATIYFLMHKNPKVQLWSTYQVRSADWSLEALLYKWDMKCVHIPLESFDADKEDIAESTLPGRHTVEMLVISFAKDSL
UniProt Q6P1Q9: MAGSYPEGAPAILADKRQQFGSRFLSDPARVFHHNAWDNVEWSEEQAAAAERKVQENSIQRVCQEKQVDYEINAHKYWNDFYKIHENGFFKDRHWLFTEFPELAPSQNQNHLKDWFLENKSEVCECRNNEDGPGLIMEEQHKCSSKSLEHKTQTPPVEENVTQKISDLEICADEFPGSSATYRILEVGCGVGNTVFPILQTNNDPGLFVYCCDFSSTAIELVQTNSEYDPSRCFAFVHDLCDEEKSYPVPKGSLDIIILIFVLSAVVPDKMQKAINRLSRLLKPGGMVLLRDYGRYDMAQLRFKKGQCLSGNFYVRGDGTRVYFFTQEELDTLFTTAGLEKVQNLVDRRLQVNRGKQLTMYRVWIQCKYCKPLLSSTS
UniProt Q6ZSS7: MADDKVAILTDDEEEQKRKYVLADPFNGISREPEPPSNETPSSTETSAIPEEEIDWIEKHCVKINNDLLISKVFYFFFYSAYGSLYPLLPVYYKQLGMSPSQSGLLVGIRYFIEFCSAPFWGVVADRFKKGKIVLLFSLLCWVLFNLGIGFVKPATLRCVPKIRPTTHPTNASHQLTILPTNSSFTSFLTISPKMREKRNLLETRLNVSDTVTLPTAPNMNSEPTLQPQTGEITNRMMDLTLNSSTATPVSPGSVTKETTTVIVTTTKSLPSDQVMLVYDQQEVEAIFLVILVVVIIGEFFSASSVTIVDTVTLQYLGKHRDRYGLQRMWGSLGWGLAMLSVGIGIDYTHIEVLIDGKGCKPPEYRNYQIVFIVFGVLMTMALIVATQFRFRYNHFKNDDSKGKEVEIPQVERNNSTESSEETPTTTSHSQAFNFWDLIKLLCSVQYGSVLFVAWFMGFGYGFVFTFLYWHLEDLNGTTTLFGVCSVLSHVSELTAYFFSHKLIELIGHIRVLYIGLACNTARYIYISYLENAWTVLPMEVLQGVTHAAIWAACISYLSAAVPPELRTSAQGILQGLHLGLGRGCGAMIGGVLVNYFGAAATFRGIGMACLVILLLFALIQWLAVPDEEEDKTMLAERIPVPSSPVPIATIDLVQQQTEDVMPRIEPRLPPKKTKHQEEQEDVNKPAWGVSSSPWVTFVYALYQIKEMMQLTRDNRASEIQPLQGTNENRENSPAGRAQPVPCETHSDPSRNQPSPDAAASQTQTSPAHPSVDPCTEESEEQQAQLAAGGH
UniProt Q05BQ5, whole entry, looked up: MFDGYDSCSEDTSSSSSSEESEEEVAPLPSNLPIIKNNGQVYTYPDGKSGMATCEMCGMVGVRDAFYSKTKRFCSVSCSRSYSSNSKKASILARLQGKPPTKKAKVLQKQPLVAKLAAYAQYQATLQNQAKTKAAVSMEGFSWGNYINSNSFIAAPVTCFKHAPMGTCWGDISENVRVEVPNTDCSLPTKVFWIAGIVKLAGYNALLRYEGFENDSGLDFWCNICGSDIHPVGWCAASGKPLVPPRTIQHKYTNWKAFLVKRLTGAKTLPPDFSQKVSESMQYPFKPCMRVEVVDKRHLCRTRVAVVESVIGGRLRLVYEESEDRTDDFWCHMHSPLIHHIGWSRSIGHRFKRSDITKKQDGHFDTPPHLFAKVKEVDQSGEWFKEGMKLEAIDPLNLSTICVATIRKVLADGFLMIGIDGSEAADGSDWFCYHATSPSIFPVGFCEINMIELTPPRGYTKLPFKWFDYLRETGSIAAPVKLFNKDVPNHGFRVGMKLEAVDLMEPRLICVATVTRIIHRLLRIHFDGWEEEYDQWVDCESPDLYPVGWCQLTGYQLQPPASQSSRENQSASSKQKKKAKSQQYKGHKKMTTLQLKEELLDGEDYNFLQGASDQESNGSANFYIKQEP
UniProt Q9Y3C7: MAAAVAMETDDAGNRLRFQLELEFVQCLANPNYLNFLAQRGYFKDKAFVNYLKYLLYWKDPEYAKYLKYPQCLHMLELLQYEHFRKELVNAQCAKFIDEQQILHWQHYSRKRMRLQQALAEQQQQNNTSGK
UniProt Q9NWA0: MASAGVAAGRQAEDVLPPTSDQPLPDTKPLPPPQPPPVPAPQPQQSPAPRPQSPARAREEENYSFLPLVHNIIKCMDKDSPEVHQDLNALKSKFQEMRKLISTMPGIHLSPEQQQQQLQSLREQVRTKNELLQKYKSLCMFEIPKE
UniProt Q5SR56: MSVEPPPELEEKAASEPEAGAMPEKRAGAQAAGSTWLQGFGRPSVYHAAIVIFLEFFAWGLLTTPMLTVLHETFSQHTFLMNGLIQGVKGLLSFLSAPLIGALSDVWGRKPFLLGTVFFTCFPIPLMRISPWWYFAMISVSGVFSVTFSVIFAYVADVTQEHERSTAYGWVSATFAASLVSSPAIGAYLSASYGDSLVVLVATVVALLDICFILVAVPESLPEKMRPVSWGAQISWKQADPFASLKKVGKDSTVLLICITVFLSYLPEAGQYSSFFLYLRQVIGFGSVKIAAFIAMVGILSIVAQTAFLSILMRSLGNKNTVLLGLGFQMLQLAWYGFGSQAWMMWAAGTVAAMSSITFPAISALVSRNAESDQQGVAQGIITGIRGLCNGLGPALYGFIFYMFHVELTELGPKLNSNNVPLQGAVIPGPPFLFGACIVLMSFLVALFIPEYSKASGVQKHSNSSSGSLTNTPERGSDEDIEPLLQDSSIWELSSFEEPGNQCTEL
UniProt Q9NWR8: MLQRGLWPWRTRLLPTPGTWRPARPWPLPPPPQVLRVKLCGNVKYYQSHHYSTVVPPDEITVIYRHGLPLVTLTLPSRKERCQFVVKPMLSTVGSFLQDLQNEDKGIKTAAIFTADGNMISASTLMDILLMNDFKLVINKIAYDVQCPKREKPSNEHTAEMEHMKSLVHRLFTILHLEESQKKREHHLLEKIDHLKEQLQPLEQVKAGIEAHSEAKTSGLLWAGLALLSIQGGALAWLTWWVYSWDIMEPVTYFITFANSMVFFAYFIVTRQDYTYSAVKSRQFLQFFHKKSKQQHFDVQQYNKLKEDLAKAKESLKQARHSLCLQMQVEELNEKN
UniProt Q6UX53: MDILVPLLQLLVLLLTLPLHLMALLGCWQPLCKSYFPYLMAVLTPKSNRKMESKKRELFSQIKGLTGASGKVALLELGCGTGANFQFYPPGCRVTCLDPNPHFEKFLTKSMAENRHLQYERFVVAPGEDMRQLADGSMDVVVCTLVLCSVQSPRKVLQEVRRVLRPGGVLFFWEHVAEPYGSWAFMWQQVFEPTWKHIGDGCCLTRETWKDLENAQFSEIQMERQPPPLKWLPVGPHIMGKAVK
UniProt P21741: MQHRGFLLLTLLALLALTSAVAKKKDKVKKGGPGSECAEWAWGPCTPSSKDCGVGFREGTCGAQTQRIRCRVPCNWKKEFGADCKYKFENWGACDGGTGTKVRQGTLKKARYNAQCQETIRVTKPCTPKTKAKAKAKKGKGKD
UniProt O15151: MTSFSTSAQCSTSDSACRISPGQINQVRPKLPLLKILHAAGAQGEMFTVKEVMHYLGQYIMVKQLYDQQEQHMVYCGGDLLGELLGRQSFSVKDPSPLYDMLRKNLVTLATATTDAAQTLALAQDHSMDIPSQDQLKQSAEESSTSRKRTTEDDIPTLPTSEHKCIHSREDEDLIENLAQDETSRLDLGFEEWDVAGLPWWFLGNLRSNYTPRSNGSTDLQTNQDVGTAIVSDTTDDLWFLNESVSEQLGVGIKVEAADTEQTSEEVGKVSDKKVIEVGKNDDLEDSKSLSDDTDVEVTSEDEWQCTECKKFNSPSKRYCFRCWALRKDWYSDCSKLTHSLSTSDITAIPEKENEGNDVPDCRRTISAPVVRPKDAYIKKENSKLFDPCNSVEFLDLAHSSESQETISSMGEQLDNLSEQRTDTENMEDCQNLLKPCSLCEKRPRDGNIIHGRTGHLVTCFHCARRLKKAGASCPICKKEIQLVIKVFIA
UniProt Q9NX70: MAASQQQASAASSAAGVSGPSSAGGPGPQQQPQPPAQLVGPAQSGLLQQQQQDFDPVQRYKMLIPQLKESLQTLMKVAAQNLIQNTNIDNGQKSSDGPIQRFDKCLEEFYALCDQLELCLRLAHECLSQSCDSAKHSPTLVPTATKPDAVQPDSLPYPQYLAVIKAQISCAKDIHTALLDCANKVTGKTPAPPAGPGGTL
UniProt Q13503: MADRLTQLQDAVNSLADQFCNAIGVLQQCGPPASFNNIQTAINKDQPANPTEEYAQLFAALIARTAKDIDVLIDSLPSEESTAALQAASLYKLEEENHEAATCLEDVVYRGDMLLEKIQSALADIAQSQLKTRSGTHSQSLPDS
UniProt O43462: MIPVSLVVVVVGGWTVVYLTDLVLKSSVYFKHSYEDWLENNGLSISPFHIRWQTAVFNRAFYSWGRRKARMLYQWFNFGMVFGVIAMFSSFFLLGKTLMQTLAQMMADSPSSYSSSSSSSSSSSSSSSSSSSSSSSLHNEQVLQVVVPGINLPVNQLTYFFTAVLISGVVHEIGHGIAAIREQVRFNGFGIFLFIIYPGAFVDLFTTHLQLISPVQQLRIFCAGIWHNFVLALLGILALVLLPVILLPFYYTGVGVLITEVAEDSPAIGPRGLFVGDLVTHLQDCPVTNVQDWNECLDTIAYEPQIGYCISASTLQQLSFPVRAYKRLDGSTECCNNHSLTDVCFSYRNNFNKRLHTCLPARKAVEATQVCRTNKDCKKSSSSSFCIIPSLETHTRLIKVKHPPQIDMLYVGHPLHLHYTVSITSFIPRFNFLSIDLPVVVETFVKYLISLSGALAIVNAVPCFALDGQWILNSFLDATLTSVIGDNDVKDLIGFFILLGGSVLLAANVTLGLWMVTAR
UniProt A6NJ78: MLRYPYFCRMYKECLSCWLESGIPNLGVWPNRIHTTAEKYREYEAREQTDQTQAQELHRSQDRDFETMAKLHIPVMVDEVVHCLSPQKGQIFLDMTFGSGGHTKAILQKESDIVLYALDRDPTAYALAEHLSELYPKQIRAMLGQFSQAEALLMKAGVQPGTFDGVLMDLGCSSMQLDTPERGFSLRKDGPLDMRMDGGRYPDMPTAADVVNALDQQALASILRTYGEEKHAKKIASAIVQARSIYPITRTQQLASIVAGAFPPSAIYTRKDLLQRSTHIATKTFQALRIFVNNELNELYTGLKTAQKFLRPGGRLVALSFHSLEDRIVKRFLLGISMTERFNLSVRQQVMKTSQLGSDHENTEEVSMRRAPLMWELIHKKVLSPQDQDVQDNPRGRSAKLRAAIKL
UniProt P50579: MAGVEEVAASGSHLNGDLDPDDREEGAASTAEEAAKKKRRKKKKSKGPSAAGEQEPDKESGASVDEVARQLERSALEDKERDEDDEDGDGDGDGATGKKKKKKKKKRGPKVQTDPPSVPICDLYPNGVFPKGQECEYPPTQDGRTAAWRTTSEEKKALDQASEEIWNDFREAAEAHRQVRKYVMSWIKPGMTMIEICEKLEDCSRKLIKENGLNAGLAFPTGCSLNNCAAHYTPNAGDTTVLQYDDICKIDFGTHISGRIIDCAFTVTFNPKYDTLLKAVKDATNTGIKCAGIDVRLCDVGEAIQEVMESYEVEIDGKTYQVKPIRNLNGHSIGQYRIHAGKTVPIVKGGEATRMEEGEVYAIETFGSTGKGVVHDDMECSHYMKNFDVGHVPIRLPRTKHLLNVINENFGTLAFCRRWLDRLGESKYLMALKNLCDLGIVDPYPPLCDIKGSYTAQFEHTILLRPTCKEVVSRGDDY

Legend:
Test in all cases: log2 fold change, soluble protein after heating vs DMSO (PISA); higher = thermal stabilisation; K562 lysate, 10 uM; active = over 0.2 and 3.5 SD of the protein, either way, in both replicates (recomputed)
[1] = compound: C#Cc1cccc(Nc2ncnc3cc(OCCOC)c(OCCOC)cc23)c1 [erlotinib]
Outline: (§1)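 K562 pellets were dounce-homogenised in PBS pH 7.4 with 1 mM MgCl2, and the crude extract at 1 mg/mL protein was treated with 10 μM compound for 30 min. Aliquots were heated for 3 min across 48°C-58°C, pooled, and brought to 0.5% NP-40 at 4°C; soluble protein was the supernatant after 21,000xg for 90 min. Soluble protein was quantified by TMTpro 16plex LC-MS/MS with channel sums equalised, and reported as log2 fold change in thermal stability against DMSO controls, with values from duplicates.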

[2] = compound: C1=CC(=CC=C1C2=NC3=C(N2)C=C(C=C3)C(=O)N)OC4=CC=C(C=C4)Cl
Outline: as §1

[3] = compound: C1=CC=C(C=C1)C2=NC(=C(N2)C3=CC=NC=C3)C4=CC(=C(C=C4)Cl)O
Outline: as §1

[4] = compound: C1COCCN1CCN2C3=CC=CC=C3N=C2NC(=O)C4=CC(=CC=C4)[N+](=O)[O-] [IRAK-1-4 Inhibitor I]
Outline: as §1

[5] = compound: C/C(=N\NC(=O)C1=CC(=CC=C1)S(=O)(=O)N2CCOCC2)/C3=C(C=CC(=C3)Cl)O
Outline: as §1

[6] = compound: C1=CC2=C(C=CC(=C2)/C=C\3/C(=O)NC(=NCC4=CC=CS4)S3)N=C1
Outline: as §1

[7] = compound: C1=CC=C2C(=C1)C3=NNC4=CC=CC(=C43)C2=O
Outline: as §1

[8] = compound: C1CCN(C1)C(=O)NC2=CC=CC(=C2)NC3=NC=C(C(=N3)NCCC4=CN=CN4)Br
Outline: as §1

[9] = compound: C1CN(CCC1(CC2=CC=C(C=C2)Cl)N)C3=NC=NC4=C3C=CN4
Outline: as §1

[10] = compound: C1=CC2=NC=CN=C2C=C1/C=C/3\C(=O)NC(=O)S3
Outline: as §1

Measured: log2 fold change

MCTS2P, A0A3B3IRV3
inactive: [1] 0.095 | [2] 0.146 | [3] -0.039 | [4] 0

MEX3A (UniProt A1L020)
inactive: [5] 0.108 | [6] -0.108 | [3] -0.007 | [7] -0.29 | [4] 0.168

MEF2C isoform 2 (UniProt Q06413)
inactive: [5] 0.076 | [6] -0.003 | [7] -0.124 | [8] 0.082 | [9] 0.051

MED28 (UniProt Q9H204)
inactive: [1] 0.057 | [2] 0.039 | [3] 0.045 | [4] -0.012

METTL17 isoform 3 (UniProt Q9H7H0)
inactive: [8] -0.005 | [9] -0.035

MED19 (UniProt A0JLT2)
inactive: [5] 0.083 | [6] -0.031 | [10] 0.047 | [3] 0.06 | [7] 0.001 | [4] 0.084

MED6 (UniProt O75586)
inactive: [5] -0.261 | [6] -0.004 | [10] 0.051 | [3] 0.07 | [7] 0.009 | [8] 0.011 | [9] -0.087 | [4] -0.08

MEX3B (UniProt Q6ZN04)
inactive: [1] -0.153 | [2] -0.047 | [10] -0.126 | [3] 0.189 | [8] -0.054 | [9] -0.08 | [4] -0.07

METTL23 (UniProt Q86XA0)
inactive: [5] -0.512 | [6] -0.261 | [7] 0.075 | [8] 0.003 | [9] -0.02

METTL6 (UniProt Q8TCB7)
inactive: [5] -0.003 | [6] 0.032 | [10] -0.036 | [3] -0.247 | [7] 0.033 | [8] -0.03 | [9] 0.083 | [4] -0.002

METTL25 (UniProt Q8N6Q8)
inactive: [5] -0.042 | [6] 0.006 | [10] 0.073 | [3] -0.104 | [7] -0.103 | [8] -0.204 | [9] 0.007 | [4] -0.009

METTL2B (UniProt Q6P1Q9)
inactive: [10] 0.083

MFSD6 (UniProt Q6ZSS7)
inactive: [1] 0.107 | [2] -0.016 | [10] -0.026 | [3] -0.075 | [8] -0.17 | [9] 0.08 | [4] -0.024

MBTD1 (UniProt Q05BQ5)
inactive: [3] -0.031 | [4] 0.066

Three consecutive records out of the list so far, quoted:
METTL17 isoform 3 (UniProt Q9H7H0)
inactive: [8] -0.005 | [9] -0.035

MED19 (UniProt A0JLT2)
inactive: [5] 0.083 | [6] -0.031 | [10] 0.047 | [3] 0.06 | [7] 0.001 | [4] 0.084

MED6 (UniProt O75586)
inactive: [5] -0.261 | [6] -0.004 | [10] 0.051 | [3] 0.07 | [7] 0.009 | [8] 0.011 | [9] -0.087 | [4] -0.08

Further records:

MED31 (UniProt Q9Y3C7)
inactive: [1] 0.043 | [2] -0.027 | [10] -0.021 | [3] 0.021 | [4] -0.064

MEGF8 (UniProt Q7Z7M0)
active: [4] -0.36
inactive: [1] 0.045 | [2] 0.016 | [10] 0.013 | [3] 0.075 | [8] -0.116 | [9] 0.071

MEX3C (UniProt Q5U5Q3)
inactive: [1] -0.044 | [2] 0.11

MFSD4B (UniProt Q5TF39)
inactive: [1] -0.021 | [2] -0.03 | [10] 0.239 | [3] 0.02 | [8] -0.217 | [9] 0.094 | [4] -0.078

MED9 (UniProt Q9NWA0)
inactive: [3] 0.015 | [4] -0.047

MBD4 (UniProt O95243)
inactive: [8] -0.075 | [9] -0.06

MFSD14B (UniProt Q5SR56)
inactive: [1] 0.016 | [2] 0.081 | [3] -0.237 | [8] 0.031 | [9] 0.142 | [4] 0.105

MCUB (UniProt Q9NWR8)
inactive: [1] 0.048 | [2] -0.069 | [10] 0.209 | [3] 0.048 | [4] -0.12

METTL7B (UniProt Q6UX53)
inactive: [1] -0.14 | [2] 0

MDK (UniProt P21741)
inactive: [1] 0.031 | [2] -0.137 | [3] 0.05 | [8] -0.107 | [9] 0.025 | [4] -0.046

MFAP4 isoform 2 (UniProt P55083)
inactive: [8] -0.006 | [9] -0.177

MATK isoform 2 (UniProt P42679)
inactive: [3] -0.077 | [4] 0.067

MDM4 (UniProt O15151)
inactive: [5] 0.045 | [6] -0.122 | [7] -0.137 | [8] -0.603 | [9] 0.358

MED29 (UniProt Q9NX70)
inactive: [1] 0.092 | [2] -0.046 | [3] -0.048 | [4] 0

METTL21A (UniProt Q8WXB1)
inactive: [1] -0.074 | [2] -0.011 | [10] 0.019 | [3] -0.027 | [4] -0.04

MED21 (UniProt Q13503)
inactive: [1] 0.068 | [2] -0.179 | [10] -0.232 | [3] -0.119 | [8] 0.27 | [9] -0.076 | [4] -0.073

METTL5 (UniProt H0YFV5)
inactive: [1] 0.073 | [2] 0.102 | [10] -0.051

MFSD11 (UniProt O43934)
inactive: [1] -0.043 | [2] 0.018 | [10] -0.052 | [3] 0.011 | [4] 0.01

MCRS1 isoform 2 (UniProt Q96EZ8)
inactive: [5] 0.091 | [6] -0.02 | [10] -0.097 | [7] 0.039

MBTPS2 (UniProt O43462)
inactive: [8] 0.024 | [9] 0.129

METTL15 (UniProt A6NJ78)
inactive: [5] -0.034 | [6] -0.343 | [3] -0.032 | [7] 0.114 | [4] 0.025

MED25 isoform 3 (UniProt Q71SY5)
inactive: [1] 0.092 | [2] 0.01 | [10] -0.062 | [3] -0.006 | [8] 0.06 | [9] 0.073 | [4] 0.073

METAP2 isoform 2 (UniProt P50579)
inactive: [3] -0.186 | [8] -0.024 | [9] 0.063 | [4] 0.185
